Consider 6 compounds from patent US12024584B2, “Methods and compositions for polyurethane dispersions using caprolactam-derived solvents” (AdvanSix Resins & Chemicals LLC, priority 2017, dated 2024).

The data set can be described thus: Film formation in severe conditions (4° C.). It is filed as physicochemical. Conditions: tin plated steel, humid thickness 200 μm.

`CCCCN1CCCCCC1=O` [N—BuCPL, N-butyl caprolactam]: the “Film Formation at 4° C.: Observation” value is on record as “no cracks detected”.
On to `CN1CCCCCC1=O` [N—MeCPL, N-methyl caprolactam], for which the “Film Formation at 4° C.: Observation” value (listed as N-methyl CPL) is reported as “no cracks detected” and the “Film Formation at 4° C.: Observation” value (listed as N-methyl CPL (NM CPL)) is given as “OK (no cracks)”.
Take `CCN1CCCCCC1=O` [N—EtCPL, N-ethyl caprolactam]: the “Film Formation at 4° C.: Observation” value is, setting by setting: (listed as N-ethyl CPL) “no cracks detected”; (listed as N-ethyl CPL (NE CPL)) “OK (no cracks)”.
With `COC(=O)CCCCC(=O)N(C)C` [Ester amide, Hexanoic acid, 6-(dimethylamino)-6-oxo, methyl ester], the “Film Formation at 4° C.: Observation” value is on record as “general cracks”.
On to `CCCCN1CCCC1=O` [NBP, N-butyl pyrrolidone, reference compound], for which the “Film Formation at 4° C.: Observation” value is reported as “OK (no cracks)”.
Regarding `CN1CCCC1=O` [NMP, N-methyl pyrrolidone, reference compound], the “Film Formation at 4° C.: Observation” value is recorded as “micro cracks”.
